PubChem BioAssay AID1224828 – NIAID | 2016

- Assay: 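Regulators linking TLR4 signalling to p65 nuclear translocation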 (primary screen)
- Cell system: mouse RAW264.7 G9 macrophage reporter cells (GFP-p65, Tnf promoter-mCherry)
- Reagents: siRNA pool against mouse genes, 100 nM
- Duration: 2 days siRNA transfection, then 40 min LPS before fixation
- Treatment: LPS (Salmonella minnesota R595) at 10 ng/ml
- Detection: 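Imaged p65 nuclear translocation ratio, normalised to the plate median, converted to robust z-scores and averaged across two replicates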
- Scale: p65 translocation robust z-score: higher = more nuclear NF-kappaB p65 after LPS than the plate median; nuclear/cytoplasmic p65 ratio: higher = more nuclear NF-kappaB p65
- Rule for the call: 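Called active when z exceeds 3.3 or falls under -1.56 (median of Tlr4 controls), giving activity score of at least 50; no calls for control wells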
- Calls: active = hit (p65 shift raised or lowered); inactive = no clear change
This is one part, drawn at random, of about 17,000 reagents tested. 762 of them (4.5%) count as active. 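Active calls include both raised and lowered p65 entry, mostly lowered; wells with fewer than 50 cells lack a z-score.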 Raw values vary from plate to plate and are shown uncorrected.

no.	gene	p65 translocation robust z-score	nuclear/cytoplasmic p65 ratio, rep 1	nuclear/cytoplasmic p65 ratio, rep 2	low cell count flag	activity call
1	Znrf2	1.52	1.58	1.45	enough cells to score	inactive
2	Hsd17b13	-1.05	1.43	1.53	enough cells to score	inactive
3	Elavl1		1.18	1.16	fewer than 50 cells per well; well left out of scoring	inactive
4	Fancb	1.74	1.91	2.05	enough cells to score	inactive
5	Clip1	-1.19	1.36	1.35	enough cells to score	inactive
6	Il1r1	-0.36	1.38	1.37	enough cells to score	inactive
7	Insc		1.24	1.24	fewer than 50 cells per well; well left out of scoring	inactive
8	Wnk3	-0.74	1.58	1.27	enough cells to score	inactive
9	Adamtsl4	1.42	1.65	1.32	enough cells to score	inactive
10	Rab10	-0.11	1.5	1.5	enough cells to score	inactive
11	Spen	-0.69	1.15	1.26	enough cells to score	inactive
12	Trim67	-2.75	1.31	1.13	enough cells to score	active
13	Rnf43		1.31	1.27	fewer than 50 cells per well; well left out of scoring	inactive
14	Hspb1	1.53	1.51	1.69	enough cells to score	inactive
15	Tnk2		1.67	1.38	fewer than 50 cells per well; well left out of scoring	inactive
16	Dhx30		1.68	1.6	fewer than 50 cells per well; well left out of scoring	inactive
17	Gpr108	1.33	1.58	1.75	enough cells to score	inactive
18	Insm1	-0.3	1.45	1.32	enough cells to score	inactive
19	Arcn1		0	1.08	fewer than 50 cells per well; well left out of scoring	inactive
20	Tube1	1.08	1.72	1.63	enough cells to score	inactive
21	Negr1	-3.05	1.35	1.08	enough cells to score	active
22	Pxdc1	-0.39	1.4	1.47	enough cells to score	inactive
23	Dnmt3a		1.82	1.5	fewer than 50 cells per well; well left out of scoring	inactive
24	Kcnn3	0.53	1.51	1.49	enough cells to score	inactive

Limited to “nuclear/cytoplasmic p65 ratio, rep 2” (2 entries from above):
Pxdc1 = 1.47
Dnmt3a = 1.5
